No constants are given. Whether binding was seen depends on the method and setting. Some results given as binding are weak or reduced against the parent protein; the word gives no strength.

Amino acid sequences for entries named in this document (tags omitted). A change or cut given only in a name is not applied to a line headed by its entry. Chains listed by the source or under a name are the forms on record and can include a tag or linker. Residues count along the entry.
UniProt P06756: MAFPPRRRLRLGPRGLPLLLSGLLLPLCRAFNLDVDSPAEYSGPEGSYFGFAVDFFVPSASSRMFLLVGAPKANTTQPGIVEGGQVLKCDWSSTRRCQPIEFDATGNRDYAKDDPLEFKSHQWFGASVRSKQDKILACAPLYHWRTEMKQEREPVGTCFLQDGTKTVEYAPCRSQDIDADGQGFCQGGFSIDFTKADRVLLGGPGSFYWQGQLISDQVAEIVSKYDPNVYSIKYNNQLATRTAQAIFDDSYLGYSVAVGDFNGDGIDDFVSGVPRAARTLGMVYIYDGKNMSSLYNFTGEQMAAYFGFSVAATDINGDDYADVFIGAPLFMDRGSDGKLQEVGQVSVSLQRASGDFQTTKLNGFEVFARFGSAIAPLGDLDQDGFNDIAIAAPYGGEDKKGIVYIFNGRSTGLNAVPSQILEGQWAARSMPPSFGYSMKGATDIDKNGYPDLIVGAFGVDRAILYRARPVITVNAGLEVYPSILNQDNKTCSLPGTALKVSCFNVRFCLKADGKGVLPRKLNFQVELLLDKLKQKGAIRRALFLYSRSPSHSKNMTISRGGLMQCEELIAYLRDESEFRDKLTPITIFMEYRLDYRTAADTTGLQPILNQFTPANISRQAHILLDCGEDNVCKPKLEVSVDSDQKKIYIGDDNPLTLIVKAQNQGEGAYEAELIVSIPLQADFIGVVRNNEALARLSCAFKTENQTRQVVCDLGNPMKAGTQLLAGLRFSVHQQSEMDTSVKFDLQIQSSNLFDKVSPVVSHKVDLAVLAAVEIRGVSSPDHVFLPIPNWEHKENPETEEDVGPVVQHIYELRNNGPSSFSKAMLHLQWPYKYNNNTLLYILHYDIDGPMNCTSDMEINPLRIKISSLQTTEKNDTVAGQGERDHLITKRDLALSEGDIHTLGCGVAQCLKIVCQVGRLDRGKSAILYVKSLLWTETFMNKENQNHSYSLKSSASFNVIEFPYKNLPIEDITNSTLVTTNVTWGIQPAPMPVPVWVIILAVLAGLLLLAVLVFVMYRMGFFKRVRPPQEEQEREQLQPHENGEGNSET
UniProt P78324, residues 31-370: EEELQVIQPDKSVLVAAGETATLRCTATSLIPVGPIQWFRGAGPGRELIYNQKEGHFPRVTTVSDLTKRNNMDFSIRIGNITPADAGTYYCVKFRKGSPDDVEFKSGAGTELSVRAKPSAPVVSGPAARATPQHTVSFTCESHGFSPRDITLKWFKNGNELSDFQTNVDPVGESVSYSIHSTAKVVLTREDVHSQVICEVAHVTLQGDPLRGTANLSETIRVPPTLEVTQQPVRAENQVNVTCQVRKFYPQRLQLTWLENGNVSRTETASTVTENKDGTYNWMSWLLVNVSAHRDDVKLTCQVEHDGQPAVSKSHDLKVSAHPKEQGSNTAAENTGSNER
CD9_E174-HA-RGD displayed on exosomes (Exo^CD9_E174-HA-RGD) (P21926, form named): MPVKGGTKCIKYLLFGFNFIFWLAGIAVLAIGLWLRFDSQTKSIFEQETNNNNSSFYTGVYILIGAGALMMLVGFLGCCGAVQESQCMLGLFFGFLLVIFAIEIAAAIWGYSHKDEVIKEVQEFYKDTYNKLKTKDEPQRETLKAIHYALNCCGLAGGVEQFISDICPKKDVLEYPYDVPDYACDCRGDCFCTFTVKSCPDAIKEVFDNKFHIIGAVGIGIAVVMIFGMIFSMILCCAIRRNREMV
CD9_E174-CD47^p110-130-Flag displayed on exosomes (Exo^CD9-CD47p110-130-Flag) (P21926, form named): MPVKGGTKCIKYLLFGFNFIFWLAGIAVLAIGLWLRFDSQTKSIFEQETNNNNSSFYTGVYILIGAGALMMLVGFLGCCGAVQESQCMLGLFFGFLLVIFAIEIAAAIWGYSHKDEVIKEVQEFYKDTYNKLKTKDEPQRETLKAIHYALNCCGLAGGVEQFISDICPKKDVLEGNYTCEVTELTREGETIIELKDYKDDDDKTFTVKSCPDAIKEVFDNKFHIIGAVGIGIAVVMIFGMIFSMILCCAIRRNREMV

Experiment [1] has as its target integrin αvβ3 protein (UniProt P06756). Kind of experiment: ELISA, exosomes on αvβ3. A general note: An ELISA detects its analyte on a solid surface through an enzyme-linked reagent.
Experiment [2] shares this target. Kind of experiment: ELISA, exosomes.
Experiment [3] deals with signal-regulatory protein alpha (SIRPα; CD172A) (UniProt P78324). Kind of experiment: ELISA, exosomes.

In the case of “CD9_E174-HA-RGD displayed on exosomes (Exo^CD9_E174-HA-RGD) (from UniProt P21926 1-174; P21926 175-228)”, in the experiment with integrin αvβ3 protein [1], the binding entry is reported as “binds”. Turning to “Exo^Smart (exosome co-displaying CD9-HA-RGD and CD9-CD47^p110-130-Flag) (from UniProt P21926 1-174; P21926 175-228; P21926 1-174; P21926 175-228)”, the binding entry (with integrin αvβ3 protein [2]; in experiment [3]) was “binds” throughout. For “CD9_E174-CD47^p110-130-Flag displayed on exosomes (Exo^CD9-CD47p110-130-Flag) (from UniProt P21926 1-174; P21926 175-228)”, the binding entry in experiment [3] is “binds”.
